From article doi:10.1101/2020.11.03.366906
These are yes or no findings as the source states them, for the method shown. In cells and extracts the contact can be indirect. Some results given as binding are weak or reduced against the parent protein; the word gives no strength.

Amino acid sequences for entries named in this document (tags omitted).
UniProt P55196: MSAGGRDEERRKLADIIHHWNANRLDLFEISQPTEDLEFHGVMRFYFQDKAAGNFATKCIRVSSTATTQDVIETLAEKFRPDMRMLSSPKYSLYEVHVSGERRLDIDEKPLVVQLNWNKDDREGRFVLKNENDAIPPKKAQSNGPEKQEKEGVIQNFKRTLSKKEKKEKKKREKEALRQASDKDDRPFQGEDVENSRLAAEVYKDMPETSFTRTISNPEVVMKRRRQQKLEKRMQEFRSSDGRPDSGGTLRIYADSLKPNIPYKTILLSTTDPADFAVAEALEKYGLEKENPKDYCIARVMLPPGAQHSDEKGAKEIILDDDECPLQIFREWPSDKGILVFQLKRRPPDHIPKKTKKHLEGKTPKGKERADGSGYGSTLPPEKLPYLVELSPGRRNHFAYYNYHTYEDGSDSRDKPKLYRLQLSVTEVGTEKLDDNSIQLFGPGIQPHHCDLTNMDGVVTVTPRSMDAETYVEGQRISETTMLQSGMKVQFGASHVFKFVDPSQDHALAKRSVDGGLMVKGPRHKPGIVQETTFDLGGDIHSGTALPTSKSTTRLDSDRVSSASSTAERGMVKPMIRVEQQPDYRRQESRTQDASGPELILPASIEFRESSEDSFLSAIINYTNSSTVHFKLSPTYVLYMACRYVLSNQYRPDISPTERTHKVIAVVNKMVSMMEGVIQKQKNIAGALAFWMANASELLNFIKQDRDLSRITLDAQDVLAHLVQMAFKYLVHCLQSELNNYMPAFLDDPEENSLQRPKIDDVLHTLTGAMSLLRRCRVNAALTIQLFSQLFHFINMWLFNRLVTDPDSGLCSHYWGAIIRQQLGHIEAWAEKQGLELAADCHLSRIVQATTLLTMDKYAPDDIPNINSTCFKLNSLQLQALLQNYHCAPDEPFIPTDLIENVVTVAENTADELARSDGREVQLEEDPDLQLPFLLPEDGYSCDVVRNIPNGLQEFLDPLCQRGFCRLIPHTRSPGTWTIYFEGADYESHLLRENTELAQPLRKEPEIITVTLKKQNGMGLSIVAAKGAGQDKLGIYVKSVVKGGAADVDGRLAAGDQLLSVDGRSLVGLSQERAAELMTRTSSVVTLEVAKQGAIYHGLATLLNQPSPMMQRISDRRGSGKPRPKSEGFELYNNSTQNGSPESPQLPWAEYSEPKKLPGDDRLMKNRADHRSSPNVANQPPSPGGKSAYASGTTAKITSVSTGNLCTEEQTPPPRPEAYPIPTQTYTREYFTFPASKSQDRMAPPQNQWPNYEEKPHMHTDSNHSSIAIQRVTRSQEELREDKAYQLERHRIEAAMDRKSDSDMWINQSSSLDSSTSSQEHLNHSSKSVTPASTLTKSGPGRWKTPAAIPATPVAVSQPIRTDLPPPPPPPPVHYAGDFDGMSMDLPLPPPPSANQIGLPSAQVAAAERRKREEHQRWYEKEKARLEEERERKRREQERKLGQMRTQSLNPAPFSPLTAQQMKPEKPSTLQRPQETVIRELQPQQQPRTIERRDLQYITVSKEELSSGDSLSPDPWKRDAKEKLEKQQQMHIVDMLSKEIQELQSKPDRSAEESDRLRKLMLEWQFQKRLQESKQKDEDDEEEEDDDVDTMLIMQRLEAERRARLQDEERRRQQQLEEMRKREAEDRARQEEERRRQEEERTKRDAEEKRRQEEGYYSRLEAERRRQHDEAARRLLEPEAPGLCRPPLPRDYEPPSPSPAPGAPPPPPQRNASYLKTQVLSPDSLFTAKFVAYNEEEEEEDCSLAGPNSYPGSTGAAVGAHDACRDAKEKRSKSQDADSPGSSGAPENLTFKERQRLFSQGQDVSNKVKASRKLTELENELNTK

Target: Afadin (human (endogenous in Caco-2)) (UniProt P55196)
Assay: co-IP

B1: ASPP2 (protein, UniProt Q13625 1-1128)
chain: MMPMFLTVYLSNNEQHFTEVPVTPETICRDVVDLCKEPGESDCHLAEVWCGSERPVADNERMFDVLQRFGSQRNEVRFFLRHERPPGRDIVSGPRSQDPSLKRNGVKVPGEYRRKENGVNSPRMDLTLAELQEMASRQQQQIEAQQQLLATKEQRLKFLKQQDQRQQQQVAEQEKLKRLKEIAENQEAKLKKVRALKGHVEQKRLSNGKLVEEIEQMNNLFQQKQRELVLAVSKVEELTRQLEMLKNGRIDSHHDNQSAVAELDRLYKELQLRNKLNQEQNAKLQQQRECLNKRNSEVAVMDKRVNELRDRLWKKKAALQQKENLPVSSDGNLPQQAASAPSRVAAVGPYIQSSTMPRMPSRPELLVKPALPDGSLVIQASEGPMKIQTLPNMRSGAASQTKGSKIHPVGPDWSPSNADLFPSQGSASVPQSTGNALDQVDDGEVPLREKEKKVRPFSMFDAVDQSNAPPSFGTLRKNQSSEDILRDAQVANKNVAKVPPPVPTKPKQINLPYFGQTNQPPSDIKPDGSSQQLSTVVPSMGTKPKPAGQQPRVLLSPSIPSVGQDQTLSPGSKQESPPAAAVRPFTPQPSKDTLLPPFRKPQTVAASSIYSMYTQQQAPGKNFQQAVQSALTKTHTRGPHFSSVYGKPVIAAAQNQQQHPENIYSNSQGKPGSPEPETEPVSSVQENHENERIPRPLSPTKLLPFLSNPYRNQSDADLEALRKKLSNAPRPLKKRSSITEPEGPNGPNIQKLLYQRTTIAAMETISVPSYPSKSASVTASSESPVEIQNPYLHVEPEKEVVSLVPESLSPEDVGNASTENSDMPAPSPGLDYEPEGVPDNSPNLQNNPEEPNPEAPHVLDVYLEEYPPYPPPPYPSGEPEGPGEDSVSMRPPEITGQVSLPPGKRTNLRKTGSERIAHGMRVKFNPLALLLDSSLEGEFDLVQRIIYEVDDPSLPNDEGITALHNAVCAGHTEIVKFLVQFGVNVNAADSDGWTPLHCAASCNNVQVCKFLVESGAAVFAMTYSDMQTAADKCEEMEEGYTQCSQFLYGVQEKMGIMNKGVIYALWDYEPQNDDELPMKEGDCMTIIHREDEDEIEWWWARLNDKEGYVPRNLLGLYPRIKPRQRSLA
binding: binds
